Results are given in words; binding and its absence hold for the method and conditions named. Some entries that bind do so weakly or less than the wild type. Sequences can lack the tags named with a protein.
T1: TREM2 human IgG1 Fc fusion protein (human) (UniProt Q9NZC2)
T1 sequence: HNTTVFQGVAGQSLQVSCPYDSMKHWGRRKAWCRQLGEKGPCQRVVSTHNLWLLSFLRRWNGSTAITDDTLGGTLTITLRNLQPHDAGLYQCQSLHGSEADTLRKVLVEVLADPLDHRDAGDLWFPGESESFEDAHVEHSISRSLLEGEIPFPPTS


Biological target: T1, TREM2 human IgG1 Fc fusion protein (human)
Assay: SPR on human TREM2-Fc

binding	Binder
binds	PI37013 (antibody, human IgG1, kappa, V domains shown) VH: EVQLLESGGGLVQPGGSLRLSCAASGFTFSNYYMAWVRQAPGKGLEWVSSLTNSGGSTYYADSVKGRFTISRDNSKNTLYLQMNSLRAEDTAVYYCTREWAGSGYFDYWGQGTLVTVSS VL: DIQMTQSPSSLSASVGDRVTMTCKASQNVGNNLAWYQQKPGKAPKLLLYYTSNRFTGVPSRFSGSGSGTDFTLTISSVQPEDFATYYCQRIYNSPWTFGQGTKLELKR
binds	PI37014 (antibody, human IgG1, kappa, V domains shown) VH: EVQLLESGGGLVQPGGSLRLSCAASGFTFSNYYMAWVRQAPGKGLEWVASLTNSGGSTYYADSVKGRFTLSRDNSKNTLYLQMNSLRAEDTAVYYCTREWAGSGYFDYWGQGTLVTVSS VL: DIQMTQSPSSLSASVGDRVTITCKASQNVGNNLAWYQQKPGKAPKLLIYYTSNRFTGVPSRFSGSGSGTDFTLTISSLQPEDFATYYCQRIYNSPWTFGQGTKLEIKR
